Measurements reported in article PMC12527917.
No constants are given. Whether binding was seen depends on the method and setting. Some entries that bind do so weakly or less than the wild type.

The chains behind the UniProt entries cited, without tags or fusion partners.
UniProt Q9Y496: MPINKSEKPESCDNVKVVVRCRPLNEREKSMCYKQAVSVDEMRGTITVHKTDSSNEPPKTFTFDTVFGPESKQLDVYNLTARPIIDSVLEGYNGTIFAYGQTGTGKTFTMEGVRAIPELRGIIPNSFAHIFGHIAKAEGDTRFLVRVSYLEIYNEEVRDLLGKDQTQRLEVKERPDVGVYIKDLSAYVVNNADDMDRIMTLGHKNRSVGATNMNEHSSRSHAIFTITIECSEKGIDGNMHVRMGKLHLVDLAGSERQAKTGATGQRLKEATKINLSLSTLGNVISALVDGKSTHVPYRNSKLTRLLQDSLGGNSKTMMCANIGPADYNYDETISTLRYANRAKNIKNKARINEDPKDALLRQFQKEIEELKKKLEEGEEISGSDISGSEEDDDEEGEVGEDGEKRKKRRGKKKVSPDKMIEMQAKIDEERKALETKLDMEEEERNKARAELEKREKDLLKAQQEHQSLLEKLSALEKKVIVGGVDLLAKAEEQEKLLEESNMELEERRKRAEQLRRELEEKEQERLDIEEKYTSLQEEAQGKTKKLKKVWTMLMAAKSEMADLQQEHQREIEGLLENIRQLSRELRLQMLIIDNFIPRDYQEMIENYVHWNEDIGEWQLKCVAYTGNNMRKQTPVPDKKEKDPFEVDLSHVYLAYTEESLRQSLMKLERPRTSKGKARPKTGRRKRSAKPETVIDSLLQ

Tests used:
[1] = biological target: T1, Kif3B (human kinesin-2 motor subunit), full length (human) (UniProt O15066); experiment: mass photometry; complexes diluted to 1–100 nM in buffer A; Refeyn OneMP; both purified
T1 sequence: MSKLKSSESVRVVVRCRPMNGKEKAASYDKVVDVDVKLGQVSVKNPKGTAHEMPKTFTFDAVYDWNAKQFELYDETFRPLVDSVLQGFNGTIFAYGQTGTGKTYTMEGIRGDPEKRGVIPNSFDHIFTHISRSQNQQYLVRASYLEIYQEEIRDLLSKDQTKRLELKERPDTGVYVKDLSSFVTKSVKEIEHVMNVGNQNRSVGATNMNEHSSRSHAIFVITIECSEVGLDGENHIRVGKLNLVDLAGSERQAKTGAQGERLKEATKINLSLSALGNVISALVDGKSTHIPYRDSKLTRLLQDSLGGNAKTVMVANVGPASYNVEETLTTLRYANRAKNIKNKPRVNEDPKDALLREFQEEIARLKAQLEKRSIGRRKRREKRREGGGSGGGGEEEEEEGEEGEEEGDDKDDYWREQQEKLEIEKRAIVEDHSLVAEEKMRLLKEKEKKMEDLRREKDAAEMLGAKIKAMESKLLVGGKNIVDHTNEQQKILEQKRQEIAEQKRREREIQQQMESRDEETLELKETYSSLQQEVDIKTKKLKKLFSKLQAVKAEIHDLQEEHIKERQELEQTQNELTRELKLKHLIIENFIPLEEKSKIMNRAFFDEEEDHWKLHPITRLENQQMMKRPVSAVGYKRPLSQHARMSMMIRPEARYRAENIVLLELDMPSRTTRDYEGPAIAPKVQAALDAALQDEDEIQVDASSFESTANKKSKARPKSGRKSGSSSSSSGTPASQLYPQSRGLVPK

[2] = biological target: T1, Kif3B (human kinesin-2 motor subunit), full length (human); experiment: SEC; motor subunits coexpressed in Sf9, purified through the ZZ tag of Kif3B/C on IgG Sepharose, TEV elution, Superose 6 Increase 3.2/300 in buffer A (50 mM Tris-HCl pH 7.5, 150 mM K-acetate, 2 mM Mg-acetate, 5% glycerol, 1 mM DTT, 0.2 mM Mg-ATP); SDS-PAGE of peak fraction; both purified
[3] = biological target: T2, Kif3C (human kinesin-2 motor subunit), full length (human) (UniProt O14782); experiment: as above
T2 sequence: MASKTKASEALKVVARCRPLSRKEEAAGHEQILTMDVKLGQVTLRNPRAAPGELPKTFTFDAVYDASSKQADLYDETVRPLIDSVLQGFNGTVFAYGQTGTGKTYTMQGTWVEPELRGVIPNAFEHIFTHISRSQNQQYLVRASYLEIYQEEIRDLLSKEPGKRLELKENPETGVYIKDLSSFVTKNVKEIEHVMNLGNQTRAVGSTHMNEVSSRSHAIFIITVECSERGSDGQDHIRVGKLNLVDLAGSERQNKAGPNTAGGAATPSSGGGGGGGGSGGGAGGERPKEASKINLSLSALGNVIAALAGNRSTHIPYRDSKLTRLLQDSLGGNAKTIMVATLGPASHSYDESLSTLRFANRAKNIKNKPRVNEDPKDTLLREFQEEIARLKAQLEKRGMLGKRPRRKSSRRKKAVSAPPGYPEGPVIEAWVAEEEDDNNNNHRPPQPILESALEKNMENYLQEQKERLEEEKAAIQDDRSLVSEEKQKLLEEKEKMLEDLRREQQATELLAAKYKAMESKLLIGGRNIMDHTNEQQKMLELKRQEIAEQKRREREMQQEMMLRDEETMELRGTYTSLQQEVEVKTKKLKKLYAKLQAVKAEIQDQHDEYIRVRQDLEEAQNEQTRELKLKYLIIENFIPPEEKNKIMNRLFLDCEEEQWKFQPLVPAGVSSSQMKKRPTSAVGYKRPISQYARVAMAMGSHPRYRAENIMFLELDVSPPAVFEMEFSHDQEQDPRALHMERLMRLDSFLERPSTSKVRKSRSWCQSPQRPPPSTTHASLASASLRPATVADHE

binding [1]: binds | binding [2]: binds | binding [3]: binds
Substance: Kif3A (human kinesin-2 motor subunit), full length (from UniProt Q9Y496 1-699)
